This is one part of the list. These are raw signals, not scaled to a control.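 In the initial screen, polymyxin B was used at a concentration that permeabilizes Salmonella's outer membrane but not its inner membrane. Maximum growth was set by DMSO wells with or without polymyxin B. Since plates varied, data were ranked per plate, and compounds giving the lowest OD600 advanced as hits.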
System: Salmonella enterica serovar Typhimurium SL1344
Experiment: bacterial growth OD600 after 18 h with compound and polymyxin B; higher = more bacterial growth (less inhibition)
Settings: 50 µM, Mueller-Hinton broth

| Structure (SMILES) | bacterial growth OD600 (polymyxin B 1 µg/mL) | bacterial growth OD600 (polymyxin B 0.75 µg/mL) |
| --- | --- | --- |
| Cc1ccn2c(CNCc3ccc4c(c3)OCO4)c(C(=O)N3CCCCCC3)nc2c1 | 0.007 | – |
| Cc1cnc(C)c(-c2cccc3c2OC(CNC(=O)c2ccc(Cn4nc(C)cc4C)cc2)C3)n1 (stereo not given) | – | 0.812 |
| Cc1cc(C)n(-c2ccc(NC(=O)C3CCCCN3C(=O)CC(C)(C)C)cc2)n1 (stereo not given) | 0.953 | – |
| COc1cccc(CN2CCN(Cc3nc(-c4cccc5ccccc45)oc3C)CC2=O)c1 | 0.009 | – |
| CCCn1c(C)c(CC(=O)NC(C)COC)c2c1CC(C)(C)CC2=O (stereo not given) | 0.791 | – |
| O=C(Nc1cccc(-c2cscn2)c1)C1CCN(Cc2cc(C#CCO)cs2)CC1 | – | 0.716 |
| COc1ccc(O)c(CN2CCC(C(Cc3ccc(F)cc3)N(C)Cc3cn(C)nc3C)CC2)c1 (stereo not given) | – | 0.932 |
| CN1CCCC(CN(CCc2ccccc2)C(=O)Cc2c(F)cccc2F)C1 (stereo not given) | 0.829 | – |
| CSc1ccccc1C(=O)NCc1c(C)ncc2c1CCN(C(=O)c1cccc(C)c1C)C2 | – | 0.814 |
| OC1CCCN(C2CCN(c3nc4nonc4nc3NCc3cccs3)CC2)C1 (stereo not given) | 0.94 | – |
| CN(C)C1CCN(c2ccc(-c3nc(CCc4ccccc4)no3)cn2)C1 (stereo not given) | 0.969 | – |
| O=C(CCCN1CCCC1=O)NC1CCCN(C2CCCCCC2)C1 (stereo not given) | 1 | – |
| O=C(c1ccc(F)c(F)c1)N1CCCC(N2CCN(c3cccc(Cl)c3)CC2)C1 (stereo not given) | 0.79 | – |
| CN(C(=O)c1cccs1)C(Cc1ccccc1)C1CCN(C(=O)c2ccc(-n3cccn3)cc2)CC1 (stereo not given) | – | 0.002 |
| Cc1cccn2c(CN(C)CC3CCOCC3)c(C(=O)N(C)CCc3ccccc3)nc12 | – | 0.764 |
| C=CCNC(=O)c1coc(COc2cccc(C(F)(F)F)c2)n1 | 0.827 | – |
| CSc1ccc(CC(=O)N2CCCC(CO)(CCOc3ccccc3)C2)cc1 (stereo not given) | 0.67 | – |
| Cc1oc(-c2cccc(NC(=O)C3CCCN(C)C3)c2)nc1CNC(=O)Cc1ccc2c(c1)OCO2 (stereo not given) | – | 0.98 |
| COC(=O)CCC(=O)NC1CC(C)(C)Cc2nc(C(C)(C)C)ncc21 (stereo not given) | – | 0.817 |
| O=C(c1ccccc1OC1CCN(Cc2cccc3c2OCO3)CC1)N1CCCCC1 | 0.905 | – |
| CN(C(=O)c1cn(Cc2ccccc2Cl)nn1)C1CCCCC1 | 0.789 | – |
| COc1ccc(C(CC(=O)N(C)Cc2cnccn2)c2ccccc2)cc1 (stereo not given) | 0.848 | – |
| COc1ccccc1CCNC(=O)Cc1ccc(N2CCC(NC(C)c3nccs3)CC2)cc1 (stereo not given) | – | 0.985 |
| COc1cc(NC(=O)CCC2CCCN(C3CCCCC3)C2)cc(OC)c1 (stereo not given) | 0.737 | – |
| COc1cccc(CC2CN(C(=O)CCn3nc(C)cc3C)CCO2)c1 (stereo not given) | – | 0.774 |
| CCOC(=O)C1CCCN(C(=O)c2cc(NC(=O)COC)c3c(c2)ncn3CCc2ccccc2)C1 (stereo not given) | – | 0.803 |
| Cc1ccccc1-n1ncc2c1CC(C)(C)CC2NC(=O)CCN1CCCCO1 (stereo not given) | 0.805 | – |
| CN(Cc1cccc(O)c1)CC1CCCN(CCc2ccccc2F)C1 (stereo not given) | 0.804 | – |
| CC(C)N(Cc1nccn1C)C(=O)c1cn(Cc2ccccc2Cl)nn1 | 0.978 | – |
| C#Cc1cccc(C(=O)N2CCC3(CC2)c2ccccc2[C@@H](NC(=O)CC)[C@@H]3OCc2cccnc2)c1 | – | 0.816 |

Molecules shown so far that contain a tert-butyl group (two):

| Structure (SMILES) | bacterial growth OD600 (polymyxin B 1 µg/mL) | bacterial growth OD600 (polymyxin B 0.75 µg/mL) |
| --- | --- | --- |
| Cc1cc(C)n(-c2ccc(NC(=O)C3CCCCN3C(=O)CC(C)(C)C)cc2)n1 (stereo not given) | 0.953 | – |
| COC(=O)CCC(=O)NC1CC(C)(C)Cc2nc(C(C)(C)C)ncc21 (stereo not given) | – | 0.817 |
